# PubChem BioAssay AID652243 – Drosophila RNAi Screening Center – 2013
# Purpose: 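Knock-downs that decrease or increase androgen receptor reporter signal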 (primary screen)
# Cells: Drosophila S2R+ cells
# Knock-down reagent: long dsRNA against Drosophila genes
# Timing: 72 h (48 h, then 24 h hormone)
# Conditions: synthetic androgen R1881 at 10 nM for 24 h
# Measurement: 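Per-well raw luminescence of the androgen-driven firefly reporter and of the Renilla control, two replicates each, without normalisation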
# Direction: firefly reporter light: higher = more light from androgen-responsive reporter; Renilla control light: higher = more constitutive control signal (cell number, transfection)
# Active means: 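Hit when the log firefly-to-Renilla ratio dropped or increased by a fixed fold versus the mean of GFP or LacZ controls across duplicate plates; lowering cut given as 1.5 and as 3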
# Meaning of the calls: active = hit: reporter lowered or raised; inactive = no hit
# The deposit covers about 24,000 reagents; below is a random part of those with a known target gene and a result. Over the whole deposit, 246 (1%) were called active. 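Plates not normalised; calls are printed but the firefly/Renilla ratio behind them is not deposited; fold cut for lowering reported inconsistently.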 Raw values vary from plate to plate and are shown uncorrected. Names joined by + are all predicted targets of the reagent. Reagent sequences are not shown. The record does not give: the amount of reagent.
gene knocked down,dsRNA,"firefly reporter light, replicate 1","firefly reporter light, replicate 2","Renilla control light, replicate 1","Renilla control light, replicate 2",activity call
Mipp2 (Multiple inositol polyphosphate phosphatase 2),DRSC18682,91145,1.59e5,7.44e5,6.80e5,inactive
Mipp2 (Multiple inositol polyphosphate phosphatase 2),DRSC36769,,,,,inactive
Mipp2 (Multiple inositol polyphosphate phosphatase 2),DRSC36770,,,,,inactive
Ilp8 (Insulin-like peptide 8),DRSC10076,3.45e5,3.62e5,2.97e6,2.09e6,inactive
Zpr1,DRSC18432,76906,96026,7.77e5,1.00e6,inactive
Usp8 (Ubiquitin specific protease 8),DRSC15876,95272,72432,6.91e5,5.68e5,inactive
Vps33B (Vacuolar protein sorting 33B),DRSC15722,93786,85333,7.17e5,6.21e5,inactive
eIF2D (eukaryotic translation initiation factor 2D),DRSC13916,1.20e6,5.78e5,1.92e6,5.96e5,inactive
CheA86a (Chemosensory protein A 86a),DRSC38820,6.60e5,6.16e5,1.84e6,1.22e6,inactive
sv (shaven),DRSC17221,2.65e5,1.70e5,3.22e6,2.42e6,inactive
sv (shaven),DRSC27256,2.79e5,2.87e5,7.42e5,7.32e5,inactive
Hinfp (Histone H4 transcription factor),DRSC18484,2.38e5,2.31e5,2.79e6,2.19e6,inactive
Hinfp (Histone H4 transcription factor),DRSC24069,7.07e5,6.01e5,8.07e5,7.67e5,inactive
CG11353,DRSC08182,5.13e5,8.12e5,1.48e6,2.15e6,inactive
CG32235,DRSC23257,6.84e5,8.00e5,1.03e6,1.44e6,inactive
CG43123,DRSC05049,1.69e5,1.40e5,4.18e5,3.83e5,inactive
roq (roquin),DRSC10227,35421,36054,4.48e5,2.53e5,inactive
dnr1 (defense repressor 1),DRSC03948,2.46e5,1.91e5,6.48e5,5.59e5,inactive
dnr1 (defense repressor 1),DRSC04122,1.76e5,1.96e5,1.58e6,1.27e6,inactive
dnr1 (defense repressor 1),DRSC26101,2.67e5,3.12e5,6.76e5,3.52e5,inactive
CG10062,DRSC05960,3.29e5,4.75e5,4.06e5,3.27e5,inactive
CG10062,DRSC22535,5.97e5,4.81e5,2.48e6,1.73e6,inactive
CG10062,DRSC24932,1.18e6,1.12e6,1.21e6,1.02e6,inactive
Rsf1 (Repressor splicing factor 1),DRSC03423,2.63e5,2.79e5,1.48e6,1.87e6,inactive
Rsf1 (Repressor splicing factor 1),DRSC21953,8.21e5,6.90e5,1.85e6,1.38e6,inactive
Rsf1 (Repressor splicing factor 1),DRSC27444,2.54e5,2.78e5,6.15e5,6.38e5,inactive
Doc3 (Dorsocross3),DRSC10480,2.81e5,1.46e5,3.11e6,1.21e6,inactive
Doc3 (Dorsocross3),DRSC28205,6.88e5,5.79e5,1.50e6,1.25e6,inactive
dgt1 (dim gamma-tubulin 1),DRSC15301,1.05e5,81774,1.53e5,1.22e5,inactive
CG14613,DRSC20625,83099,63972,6.76e5,6.96e5,inactive
CG14613,DRSC27260,3.74e5,2.81e5,4.86e5,5.32e5,inactive
CG6937 + btn,DRSC16917,2.08e5,1.62e5,2.43e6,1.76e6,inactive
wcd (wicked),DRSC07051,9.98e5,8.31e5,2.37e6,2.01e6,inactive
Ttc26 (Tetratricopeptide repeat domain 26),DRSC15591,4.62e5,5.12e5,2.71e6,3.52e6,inactive
Ttc26 (Tetratricopeptide repeat domain 26),DRSC27237,2.22e5,2.15e5,5.45e5,5.63e5,inactive
CG5276,DRSC15759,2.34e5,2.11e5,2.87e6,3.25e6,inactive
CG17777,DRSC18137,2.42e5,3.13e5,3.04e6,3.45e6,inactive
CG43338,DRSC23362,5.41e5,6.25e5,6.29e5,6.50e5,inactive
CG1307,DRSC12492,79251,28542,9.39e5,3.39e5,inactive
Gr59e (Gustatory receptor 59e),DRSC04276,4.16e5,3.17e5,1.32e6,1.35e6,inactive

5 consecutive reagents already listed, for reference:
gene knocked down,dsRNA,"firefly reporter light, replicate 1","firefly reporter light, replicate 2","Renilla control light, replicate 1","Renilla control light, replicate 2",activity call
dnr1 (defense repressor 1),DRSC03948,2.46e5,1.91e5,6.48e5,5.59e5,inactive
dnr1 (defense repressor 1),DRSC04122,1.76e5,1.96e5,1.58e6,1.27e6,inactive
dnr1 (defense repressor 1),DRSC26101,2.67e5,3.12e5,6.76e5,3.52e5,inactive
CG10062,DRSC05960,3.29e5,4.75e5,4.06e5,3.27e5,inactive
CG10062,DRSC22535,5.97e5,4.81e5,2.48e6,1.73e6,inactive
